Consider one compound from article PMC8791477, “Evaluation of SARS-CoV-2 entry, inflammation and new therapeutics in human lung tissue cells” (PLoS Pathogens, 2022).

Data set [1] is described as follows: in vitro. The conditions noted are these: human, CC50 HLT.
The nature of data set [2]: in vitro. The conditions noted are these: African green monkey, CC50 Vero E6.

As for `Cc1cc(NS(=O)(=O)c2ccc(N)cc2)no1` [Sulfamethoxazole], the CC50 in data set [1] and in data set [2] was greater than 100 µM in each case.
